Data from publication PMC11074327.
No constants are given. Whether binding was seen depends on the method and setting. In cells and extracts the contact can be indirect. Some binding calls cover weakened binding; strength is not graded here. Where a sequence is shown, tags or fusion partners need not be part of it.

Sequences of proteins named here, by UniProt entry; tags and fusion partners are left off. A change or cut given only in a name is not applied to a line headed by its entry. A line that says so, or that is headed by a name, gives the form on record, which may keep a tag or linker.
UniProt Q7KN62: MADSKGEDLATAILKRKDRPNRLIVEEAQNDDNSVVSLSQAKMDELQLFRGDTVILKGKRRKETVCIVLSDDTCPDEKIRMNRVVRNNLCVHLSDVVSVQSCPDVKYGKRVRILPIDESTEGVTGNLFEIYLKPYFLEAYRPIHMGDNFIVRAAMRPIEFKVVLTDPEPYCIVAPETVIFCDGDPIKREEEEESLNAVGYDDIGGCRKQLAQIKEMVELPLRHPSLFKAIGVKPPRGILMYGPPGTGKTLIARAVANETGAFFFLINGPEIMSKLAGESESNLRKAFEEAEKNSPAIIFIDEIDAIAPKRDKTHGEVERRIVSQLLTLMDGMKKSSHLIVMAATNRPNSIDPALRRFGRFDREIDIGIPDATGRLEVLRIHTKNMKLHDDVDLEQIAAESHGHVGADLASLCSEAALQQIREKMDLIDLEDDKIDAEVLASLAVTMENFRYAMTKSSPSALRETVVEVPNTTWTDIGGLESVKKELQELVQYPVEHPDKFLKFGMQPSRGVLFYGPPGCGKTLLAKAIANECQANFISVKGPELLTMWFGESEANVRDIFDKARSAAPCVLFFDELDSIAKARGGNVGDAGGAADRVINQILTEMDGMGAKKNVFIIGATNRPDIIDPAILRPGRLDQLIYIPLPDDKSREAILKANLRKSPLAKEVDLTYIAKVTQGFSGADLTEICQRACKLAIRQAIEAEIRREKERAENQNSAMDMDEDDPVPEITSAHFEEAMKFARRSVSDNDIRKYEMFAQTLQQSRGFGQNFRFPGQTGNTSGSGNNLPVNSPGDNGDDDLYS
Fg-Ter94AA (Q7KN62, form named): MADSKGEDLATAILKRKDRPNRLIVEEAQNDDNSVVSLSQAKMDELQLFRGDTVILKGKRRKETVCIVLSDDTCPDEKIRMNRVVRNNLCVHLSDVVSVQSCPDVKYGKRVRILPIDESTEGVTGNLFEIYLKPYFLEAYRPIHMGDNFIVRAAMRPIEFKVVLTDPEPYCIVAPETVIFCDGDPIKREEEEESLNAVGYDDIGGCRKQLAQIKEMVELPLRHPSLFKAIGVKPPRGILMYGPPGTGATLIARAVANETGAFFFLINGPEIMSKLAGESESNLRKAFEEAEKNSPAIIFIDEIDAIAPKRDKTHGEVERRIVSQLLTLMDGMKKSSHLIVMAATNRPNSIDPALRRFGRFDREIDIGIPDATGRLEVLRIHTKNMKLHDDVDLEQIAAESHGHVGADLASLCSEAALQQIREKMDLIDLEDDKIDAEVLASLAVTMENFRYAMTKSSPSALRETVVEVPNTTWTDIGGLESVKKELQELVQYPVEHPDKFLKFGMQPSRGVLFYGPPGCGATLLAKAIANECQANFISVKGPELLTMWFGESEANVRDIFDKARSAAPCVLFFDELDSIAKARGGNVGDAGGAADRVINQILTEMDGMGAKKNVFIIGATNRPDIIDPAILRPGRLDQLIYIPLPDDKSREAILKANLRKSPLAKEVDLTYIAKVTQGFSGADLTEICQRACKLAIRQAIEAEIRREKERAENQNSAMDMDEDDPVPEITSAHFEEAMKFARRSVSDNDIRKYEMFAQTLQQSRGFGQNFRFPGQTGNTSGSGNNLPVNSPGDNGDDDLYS

T1: Myc-Mer (Drosophila) (UniProt Q24564)
T1 sequence: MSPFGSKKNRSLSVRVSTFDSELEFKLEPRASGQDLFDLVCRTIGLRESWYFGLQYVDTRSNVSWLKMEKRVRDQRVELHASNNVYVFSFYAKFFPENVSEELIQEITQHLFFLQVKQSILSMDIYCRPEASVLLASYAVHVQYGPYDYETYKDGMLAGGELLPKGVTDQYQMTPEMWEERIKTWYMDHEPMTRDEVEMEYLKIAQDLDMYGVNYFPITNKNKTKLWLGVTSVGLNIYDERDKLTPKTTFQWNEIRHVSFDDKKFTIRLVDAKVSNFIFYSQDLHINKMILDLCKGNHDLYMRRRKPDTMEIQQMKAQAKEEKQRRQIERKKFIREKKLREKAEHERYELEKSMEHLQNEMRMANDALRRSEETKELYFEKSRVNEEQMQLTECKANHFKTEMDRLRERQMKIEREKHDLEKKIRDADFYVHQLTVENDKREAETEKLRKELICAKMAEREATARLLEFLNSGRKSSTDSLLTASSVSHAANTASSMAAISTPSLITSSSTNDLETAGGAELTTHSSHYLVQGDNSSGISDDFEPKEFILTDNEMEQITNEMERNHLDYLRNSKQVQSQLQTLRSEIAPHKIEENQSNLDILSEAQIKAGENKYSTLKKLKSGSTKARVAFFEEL

T2: Fg-Mer^1-600 (Drosophila) (UniProt Q24564)
T2 sequence: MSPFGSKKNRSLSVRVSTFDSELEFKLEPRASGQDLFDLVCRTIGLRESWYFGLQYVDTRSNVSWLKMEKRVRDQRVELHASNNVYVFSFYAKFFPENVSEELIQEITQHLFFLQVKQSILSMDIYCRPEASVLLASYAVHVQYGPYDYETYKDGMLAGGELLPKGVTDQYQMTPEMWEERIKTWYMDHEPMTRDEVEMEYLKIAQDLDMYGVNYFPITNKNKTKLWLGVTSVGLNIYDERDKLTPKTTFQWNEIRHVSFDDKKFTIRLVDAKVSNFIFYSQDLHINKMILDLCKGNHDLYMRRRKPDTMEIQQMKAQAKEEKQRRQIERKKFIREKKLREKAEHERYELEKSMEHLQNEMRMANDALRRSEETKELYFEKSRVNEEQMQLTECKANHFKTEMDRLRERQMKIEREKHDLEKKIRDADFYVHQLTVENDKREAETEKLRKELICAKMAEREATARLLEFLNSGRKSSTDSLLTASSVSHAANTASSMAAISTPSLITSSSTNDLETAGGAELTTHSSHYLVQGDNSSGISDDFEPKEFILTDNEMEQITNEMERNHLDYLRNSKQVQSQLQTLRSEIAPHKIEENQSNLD


Legend:
[1] = target: T1, Myc-Mer (Drosophila); assay: co-IP; HEK-293T cells co-transfected with two tagged constructs (PEI), collected 48 h after transfection; IP with anti-Fg or anti-Myc, immunoblot
[2] = target: Fg-Ter94 (Drosophila) (UniProt Q7KN62); assay: as above
[3] = target: T2, Fg-Mer^1-600 (Drosophila); assay: co-IP; HEK-293T cells co-transfected with two tagged partners, with or without co-expressed HA-Ter94 (Fig. 7a-c) or HA-Ub-K63 (Fig. 7d-e); IP and immunoblot

binding [2] | Molecule | further results
binds | Myc-Mer-L135P (protein, UniProt Q24564 1-635) MSPFGSKKNRSLSVRVSTFDSELEFKLEPRASGQDLFDLVCRTIGLRESWYFGLQYVDTRSNVSWLKMEKRVRDQRVELHASNNVYVFSFYAKFFPENVSEELIQEITQHLFFLQVKQSILSMDIYCRPEASVLPASYAVHVQYGPYDYETYKDGMLAGGELLPKGVTDQYQMTPEMWEERIKTWYMDHEPMTRDEVEMEYLKIAQDLDMYGVNYFPITNKNKTKLWLGVTSVGLNIYDERDKLTPKTTFQWNEIRHVSFDDKKFTIRLVDAKVSNFIFYSQDLHINKMILDLCKGNHDLYMRRRKPDTMEIQQMKAQAKEEKQRRQIERKKFIREKKLREKAEHERYELEKSMEHLQNEMRMANDALRRSEETKELYFEKSRVNEEQMQLTECKANHFKTEMDRLRERQMKIEREKHDLEKKIRDADFYVHQLTVENDKREAETEKLRKELICAKMAEREATARLLEFLNSGRKSSTDSLLTASSVSHAANTASSMAAISTPSLITSSSTNDLETAGGAELTTHSSHYLVQGDNSSGISDDFEPKEFILTDNEMEQITNEMERNHLDYLRNSKQVQSQLQTLRSEIAPHKIEENQSNLDILSEAQIKAGENKYSTLKKLKSGSTKARVAFFEEL | 
binds | Myc-Mer-L54P (protein, UniProt Q24564 1-635) MSPFGSKKNRSLSVRVSTFDSELEFKLEPRASGQDLFDLVCRTIGLRESWYFGPQYVDTRSNVSWLKMEKRVRDQRVELHASNNVYVFSFYAKFFPENVSEELIQEITQHLFFLQVKQSILSMDIYCRPEASVLLASYAVHVQYGPYDYETYKDGMLAGGELLPKGVTDQYQMTPEMWEERIKTWYMDHEPMTRDEVEMEYLKIAQDLDMYGVNYFPITNKNKTKLWLGVTSVGLNIYDERDKLTPKTTFQWNEIRHVSFDDKKFTIRLVDAKVSNFIFYSQDLHINKMILDLCKGNHDLYMRRRKPDTMEIQQMKAQAKEEKQRRQIERKKFIREKKLREKAEHERYELEKSMEHLQNEMRMANDALRRSEETKELYFEKSRVNEEQMQLTECKANHFKTEMDRLRERQMKIEREKHDLEKKIRDADFYVHQLTVENDKREAETEKLRKELICAKMAEREATARLLEFLNSGRKSSTDSLLTASSVSHAANTASSMAAISTPSLITSSSTNDLETAGGAELTTHSSHYLVQGDNSSGISDDFEPKEFILTDNEMEQITNEMERNHLDYLRNSKQVQSQLQTLRSEIAPHKIEENQSNLDILSEAQIKAGENKYSTLKKLKSGSTKARVAFFEEL | 
no binding | Myc-Yki (protein, UniProt Q45VV3 1-395) MLTTMSASSNTNSLIEKEIDDEDMLSPIKSNNLVVRVNQDTDDNLQALFDSVLNPGDAKRPLQLPLRMRKLPNSFFTPPAPSHSRANSADSTYDAGSQSSINIGNKASIVQQPDGQSPIAAIPQLQIQPSPQHSRLAIHHSRARSSPASLQQNYNVRARSDAAAANNPNANPSSQQQPAGPTFPENSAQEFPSGAPASSAIDLDAMNTCMSQDIPMSMQTVHKKQRSYDVISPIQLNRQLGALPPGWEQAKTNDGQIYYLNHTTKSTQWEDPRIQYRQQQQILMAERIKQNDVLQTTKQTTTSTIANNLGPLPDGWEQAVTESGDLYFINHIDRTTSWNDPRMQSGLSVLDCPDNLVSSLQIEDNLCSNLFNDAQAIVNPPSSHKPDDLEWYKIN | 

The next lines start with the molecule.

Molecule | binding [2] | further results
Fg-Ter94AA (from UniProt Q7KN62 1-801) |  | binding [1]: binds
Myc-Mer-L36R (protein, UniProt Q24564 1-635) MSPFGSKKNRSLSVRVSTFDSELEFKLEPRASGQDRFDLVCRTIGLRESWYFGLQYVDTRSNVSWLKMEKRVRDQRVELHASNNVYVFSFYAKFFPENVSEELIQEITQHLFFLQVKQSILSMDIYCRPEASVLLASYAVHVQYGPYDYETYKDGMLAGGELLPKGVTDQYQMTPEMWEERIKTWYMDHEPMTRDEVEMEYLKIAQDLDMYGVNYFPITNKNKTKLWLGVTSVGLNIYDERDKLTPKTTFQWNEIRHVSFDDKKFTIRLVDAKVSNFIFYSQDLHINKMILDLCKGNHDLYMRRRKPDTMEIQQMKAQAKEEKQRRQIERKKFIREKKLREKAEHERYELEKSMEHLQNEMRMANDALRRSEETKELYFEKSRVNEEQMQLTECKANHFKTEMDRLRERQMKIEREKHDLEKKIRDADFYVHQLTVENDKREAETEKLRKELICAKMAEREATARLLEFLNSGRKSSTDSLLTASSVSHAANTASSMAAISTPSLITSSSTNDLETAGGAELTTHSSHYLVQGDNSSGISDDFEPKEFILTDNEMEQITNEMERNHLDYLRNSKQVQSQLQTLRSEIAPHKIEENQSNLDILSEAQIKAGENKYSTLKKLKSGSTKARVAFFEEL | binds | 
Myc-Mer-F52S (protein, UniProt Q24564 1-635) MSPFGSKKNRSLSVRVSTFDSELEFKLEPRASGQDLFDLVCRTIGLRESWYSGLQYVDTRSNVSWLKMEKRVRDQRVELHASNNVYVFSFYAKFFPENVSEELIQEITQHLFFLQVKQSILSMDIYCRPEASVLLASYAVHVQYGPYDYETYKDGMLAGGELLPKGVTDQYQMTPEMWEERIKTWYMDHEPMTRDEVEMEYLKIAQDLDMYGVNYFPITNKNKTKLWLGVTSVGLNIYDERDKLTPKTTFQWNEIRHVSFDDKKFTIRLVDAKVSNFIFYSQDLHINKMILDLCKGNHDLYMRRRKPDTMEIQQMKAQAKEEKQRRQIERKKFIREKKLREKAEHERYELEKSMEHLQNEMRMANDALRRSEETKELYFEKSRVNEEQMQLTECKANHFKTEMDRLRERQMKIEREKHDLEKKIRDADFYVHQLTVENDKREAETEKLRKELICAKMAEREATARLLEFLNSGRKSSTDSLLTASSVSHAANTASSMAAISTPSLITSSSTNDLETAGGAELTTHSSHYLVQGDNSSGISDDFEPKEFILTDNEMEQITNEMERNHLDYLRNSKQVQSQLQTLRSEIAPHKIEENQSNLDILSEAQIKAGENKYSTLKKLKSGSTKARVAFFEEL | binds | 
Myc-Wts (protein, UniProt Q9VA38 1-1105) MHPAGEKRGGRPNDKYTAEALESIKQDLTRFEVQNNHRNNQNYTPLRYTATNGRNDALTPDYHHAKQPMEPPPSASPAPDVVIPPPPAIVGQPGAGSISVSGVGVGVVGVANGRVPKMMTALMPNKLIRKPSIERDTASSHYLRCSPALDSGAGSSRSDSPHSHHTHQPSSRTVGNPGGNGGFSPSPSGFSEVAPPAPPPRNPTACSAATPPPPVPPTSQAYVKRRSPALNNRPPAIAPPTQRGNSPVITQNGLKNPQQQLTQQLKSLNLYPGGGSGAVVEPPPPYLIQGGAGGAAPPPPPPSYTASMQSRQSPTQSQQSDYRKSPSSGIYSATSAGSPSPITVSLPPAPLAKPQPRVYQARSQQPIIMQSVKSTQVQKPVLQTAVAPQSPSSASASNSPVHVLAAPPSYPQKSAAVVQQQQQAAAAAHQQQHQHQQSKPPTPTTPPLVGLNSKPNCLEPPSYAKSMQAKAATVVQQQQQQQQQQQQVQQQQVQQQQQQQQQQLQALRVLQAQAQRERDQRERDQRERERDQQKLANGNPGRQMLPPPPYQSNNNNNSEIKPPSCNNNNIQISNSNLATTPPIPPAKYNNNSSNTGANSSGGSNGSTGTTASSSTSCKKIKHASPIPERKKISKEKEEERKEFRIRQYSPQAFKFFMEQHIENVIKSYRQRTYRKNQLEKEMHKVGLPDQTQIEMRKMLNQKESNYIRLKRAKMDKSMFVKLKPIGVGAFGEVTLVSKIDTSNHLYAMKTLRKADVLKRNQVAHVKAERDILAEADNNWVVKLYYSFQDKDNLYFVMDYIPGGDLMSLLIKLGIFEEELARFYIAEVTCAVDSVHKMGFIHRDIKPDNILIDRDGHIKLTDFGLCTGFRWTHNSKYYQENGNHSRQDSMEPWEEYSENGPKPTVLERRRMRDHQRVLAHSLVGTPNYIAPEVLERSGYTQLCDYWSVGVILYEMLVGQPPFLANSPLETQQKVINWEKTLHIPPQAELSREATDLIRRLCASADKRLGKSVDEVKSHDFFKGIDFADMRKQKAPYIPEIKHPTDTSNFDPVDPEKLRSNDSTMSSGDDVDQNDRTFHGFFEFTFRRFFDDKQPPDMTDDQAPVYV |  | binding [3]: binds
HA-Hpo (protein, UniProt Q8T0S6 1-669) MSEPEVTSVVDMKSPNISSSCSFFKLKKLSEESLLQPPEKVFDIMYKLGEGSYGSVYKAVHKESSSIVAIKLVPVESDLHEIIKEISIMQQCDSPYVVRYYGSYFKQYDLWICMEYCGAGSVSDIMRLRKKTLTEDEIATILSDTLQGLVYLHLRRKIHRDIKAANILLNTEGYAKLADFGVAGQLTDTMAKRNTVIGTPFWMAPEVIEEIGYDCVADIWSLGITALEMAEGKPPYGEIHPMRAIFMIPQKPPPSFREPDRWSTEFIDFVSKCLVKEPDDRATATELLEHEFIRNAKHRSILKPMLEETCAIREQQRANRSFGGVLAASQAKSLATQENGMQQHITDNAFMEDPGTLVPEKFGEYQQSSASDATMIAHAEQGVDEGTLGPGGLRNLSKAAAPAAASSAASPLDMPAVDSGTMVELESNLGTMVINSDSDDSTTAKNNDDQKPRNRYRPQFLEHFDRKNAGDGRGDEKPIATEYSPAAAEQQQQQQQQQQQQQQDEQHLASGANDLNNWEHNMEMQFQQISAINQYGLQQHQQQQQVLMAYPLMNEQLIALNNQPNLLLSNAAPMGQQGIPAAAPAQPPPAYQNQHMHTQSHAYVEGEFEFLKFLTFDDLNQRLCNIDHEMELEIEQLNKKYNAKRQPIVDAMNAKRKRQQNINNNLIKI | no binding | 
